Consider 36 molecules from PubChem BioAssay AID2685 (National Center for Advancing Translational Sciences (NCATS), 2010).

This assay can be described thus: qHTS Assay for Lipid Storage Modulators in Drosophila S3 Cells.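 On cell number change: cells counted by Cell Tracker Red CMTPX staining in the red channel.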 The following applies: BODIPY lipid droplet fluorescence, 18-24 h; for cell number change: measured here: cell count max response, cells fed with added oleic acid. In short, it runs like this:
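Laser-scanning cytometry quantifies lipid droplet accumulation (500–530 nm total intensity; droplet/cell object ratio) in oleic acid-fed (400 uM added) Drosophila S3 cells treated with a concentration series. 20 uM Triacsin C defined 100% inhibition.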
In general terms: Quantitative high-throughput screening tests each substance at several concentrations.

Setting [1] is: measured here: lipid fluorescence (Fed channel) AC50, cells fed with added oleic acid.
The mark [2] stands for this setting: measured here: cell number channel AC50, cells fed with added oleic acid.

Each structure is given as a SMILES string. The list shows a part of the results. Further columns of the screen follow, without active or inactive calls. Compounds called inactive in the main read-out are mostly missing here. Potencies come from curve fits of mixed quality, noted in brackets.

In general, AC50 refers to the concentration giving half of the maximal activity seen. The low end stands for greater potency, the high end for weaker potency. Take `COCCNC(=O)C(NC(=O)C1CCCCC1)C12CC3CC(CC(C3)C1)C2` (stereo unspecified): the cell number change was -36.9%. Besides, under setting [1], the concentration at half-maximal activity (AC50) was 32.6 µM [falling, partial curve, poor fit].
For the molecule `Cc1cc(C=O)c(C)n1-c1sc2c(c1C(=O)O)CCCC2`, the cell number change is -16%. In addition, the half-maximal activity concentration (AC50) under setting [1] was 0.0184 µM [falling, full curve, poor fit].
As to `Cc1cccc(CN2CCc3c([nH]c4ccccc34)C2)c1`, the cell number change was -32.4%. Besides, the AC50 under setting [2] was 23.1 µM [falling, single point].
For the molecule `Cc1cc(C)cc(NC(=S)/C(=C(\[O-])c2ccc(Cl)cc2Cl)[n+]2ccccc2)c1`, the cell number change came out at 29.5%. Further, the AC50 under setting [1] is 23.1 µM [rising, single point].
Take `CCC[N+]1(CC#CCC(c2ccccc2)c2ccccc2)CCCCC1`: the cell number change was -8.33%. The AC50 under setting [1] is 0.13 µM [falling, full curve, poor fit].
Take `O=C1c2ccc(-c3ccc4c(c3)C(=O)N(CCO)C4=O)cc2C(=O)N1CCO`: the cell number change was -20.7%. The AC50 under setting [1] was 0.517 µM [falling, full curve].
Take `CCC(C)NS(=O)(=O)c1ccc(OCC(=O)N2CCCC2)cc1` (stereo unspecified): the cell number change stood at 15.7%. The AC50 under setting [1] was 5.17 µM [rising, full curve].
For `COc1ccc(-n2nc3c(N)n[nH]c3cc2=O)cc1`, the cell number change worked out at 18.2%. Further, under setting [2], the AC50 was 3.26 µM [rising, single point].
On to `Fc1cccc(CSc2nc3ccncc3[nH]2)c1`, for which the cell number change was found to be 36.2%. Moreover, under setting [2], the AC50 was 9.2 µM [rising, partial curve]. Further, under setting [1], the AC50 is 1.64 µM [rising, partial curve].
For the molecule `CN(Cc1c(C(=O)N/N=C/c2cccc(O)c2)nnn1-c1nonc1N)c1ccccc1`, the cell number change was -13.8%. For the same molecule, under setting [1], the AC50 is 1.64 µM [falling, full curve].
For `O=C1OCC(CO)(CO)N=C1NNc1cc(Cl)ccc1Cl`, the cell number change was -19.3%. The AC50 under setting [2] was 0.13 µM [falling, full curve, poor fit]. Also, the AC50 under setting [1] was 6.51 µM [falling, single point].
For the molecule `CCOC(=O)C1CCN(C(=O)c2ccc3c(=O)n4nc(Nc5cc(C)ccc5C)sc4nc3c2)CC1`, the cell number change was -36%. Moreover, the AC50 under setting [2] was 0.00517 µM [falling, full curve, poor fit].
Turning to `Cc1ccc(S(=O)(=O)N2CCOCC2)cc1NC(=O)COC(=O)c1ccc2c(c1)OCO2`, the half-maximal activity concentration (AC50) under setting [2] was 0.0058 µM [rising, full curve, poor fit].
For `CCOc1ncccc1C(=O)N1CCN(c2ccc(C(F)(F)F)cn2)CC1`, the cell number change was 41.3%. In addition, the AC50 under setting [2] was 0.184 µM [rising, full curve, poor fit]. For the same molecule, the AC50 under setting [1] is 0.103 µM [rising, full curve, poor fit].
As to `C/C(CC(=O)Nc1ccc(C)c(Cl)c1)=N\NC(=O)C1CCCCC1`, the cell number change was found to be 32.1%.
Consider `Cc1ccc(N(CC(O)CON=C2c3ccccc3-c3ccccc32)S(C)(=O)=O)cc1` (stereo unspecified), for which the cell number change was -55.7%. Under setting [2], the AC50 is 18.4 µM [falling, single point]. The AC50 under setting [1] is 0.517 µM [falling, full curve].
On to `COC(=O)c1ccccc1NC(=O)CSc1nnc(-c2cccnc2)o1`, for which the cell number change stood at 13.5%. Besides, the half-maximal activity concentration (AC50) under setting [1] was 29.1 µM [rising, single point].
For `CCOC(=O)c1c(C)c(C(=O)NC(C)COC)c(C)n1CC` (stereo unspecified), the cell number change is -88.9%. Besides, under setting [2], the AC50 was 25.9 µM [falling, partial curve]. The AC50 under setting [1] was 18.4 µM [falling, partial curve].
With `CN(C)S(=O)(=O)c1ccc(C(=O)OCC(=O)NCc2ccccc2)cc1`, the cell number change is -5.28%. The AC50 under setting [1] is 0.13 µM [falling, full curve, poor fit].
With `CCC(C)[C@H]1COCCS(=O)(=O)N1Cc1ccc(C)cc1` (stereo partly specified), the cell number change was -10.2%.
On to `CCOc1ccc(S(=O)(=O)N2CCOCC2)cc1NC(=O)C1=COCCO1`, for which the cell number change worked out at 92%. The half-maximal activity concentration (AC50) under setting [2] was 13 µM [rising, partial curve].
`CC(NC(=O)c1ccc(NC(=O)c2ccco2)cc1)c1ccccc1` (stereo unspecified): the cell number change turned out to be 30.2%. Besides, the concentration at half-maximal activity (AC50) under setting [2] was 14.6 µM [rising, partial curve, poor fit]. The AC50 under setting [1] was 29.1 µM [rising, single point].
Turning to `CC1CCN(C(=O)c2ccc(-c3ccccc3Cl)o2)CC1`, the cell number change was found to be 41.4%. For the same molecule, under setting [2], the AC50 was 18.4 µM [rising, single point].
For `Cc1oc(/C=N/NS(=O)(=O)c2ccccc2)cc1Br`, the cell number change is 29.6%. Also, under setting [2], the AC50 was 3.26 µM [rising, full curve, poor fit]. Also, the AC50 under setting [1] was 29.1 µM [rising, single point].
`CCCCNc1nc2ccccc2nc1NS(=O)(=O)c1cccs1`: the half-maximal activity concentration (AC50) was 5.8 µM [rising, single point] under setting [2] and 5.17 µM [rising, single point] under setting [1].
`CCOc1ccc(C2CC(c3ccccc3)Nc3nc(N)nn32)cc1` (stereo unspecified): the cell number change is 1.26%.
In the case of `Cc1cc(C(C)(C)CC(C)(C)C)ccc1OCCOCC[N+](C)(C)Cc1ccccc1`, the cell number change is -74.8%. For the same molecule, the AC50 under setting [2] was 14.6 µM [falling, partial curve, poor fit]. The AC50 under setting [1] was 18.4 µM [falling, partial curve].
With `O=C1/C(=C/c2ccc([N+](=O)[O-])cc2)C=C(c2ccccc2)N1c1ccccc1`, the cell number change is -38%. Besides, under setting [2], the concentration at half-maximal activity (AC50) was 0.517 µM [falling, full curve, poor fit]. Besides, the AC50 under setting [1] was 0.58 µM [falling, full curve].
Take `O=C(CN(Cc1ccccc1F)C(=O)c1csnn1)NCc1ccc2c(c1)OCO2`: the cell number change is 11.3%.
Regarding `O=C(Nc1ccc(S(=O)(=O)N2CCCCC2)cc1)c1ccc(F)cc1`, the cell number change was 6.96%. Besides, the AC50 under setting [1] is 6.51 µM [falling, single point].
As for `COc1cc(/C=N/NC(=O)c2cc(C)n(-c3ccc(F)cc3)c2C)cc(OC)c1O`, under setting [1], the AC50 was 29.1 µM [rising, single point].
For the molecule `Cc1ccc2sc(N3CCN(C(=O)C4=COCCO4)CC3)nc2c1C`, the cell number change was -28.1%.
`COc1ccc(NC(=O)CCCc2ccc(OC)c(C)c2)cc1`: the cell number change turned out to be 9.34%. Moreover, under setting [1], the AC50 is 23.1 µM [rising, partial curve].
`Cc1ccc(C)c2nc(N3CCCC3)c(C#N)cc12`: the cell number change was determined as 78%. Also, the AC50 under setting [2] is 6.51 µM [rising, full curve]. For the same molecule, the AC50 under setting [1] was 1.46 µM [rising, full curve].
For `CCOc1ccccc1OCCCOc1ccc(C)cc1Br`, the cell number change was -24.8%. Also, under setting [2], the AC50 was 5.17 µM [falling, full curve, poor fit]. In addition, under setting [1], the AC50 was 0.00517 µM [falling, full curve, poor fit].
Take `O=S(=O)(c1cc(Cl)ccc1Cl)N1CCN(Cc2ccco2)CC1`: the cell number change turned out to be 22.5%. Also, the AC50 under setting [1] was 11.2 µM [rising, partial curve, poor fit].
